Data taken from article PMC5500802.
These are yes or no findings as the source states them, for the method shown. In cells and extracts the contact can be indirect. For some of these results: Binding can be weak; no strength is given. Sequences can lack the tags named with a protein.

Chains of the proteins cited; added tags and fusions are not shown. Lines headed by an entry give the natural chain unless they say otherwise; changes in a name come on top.
UniProt P60953: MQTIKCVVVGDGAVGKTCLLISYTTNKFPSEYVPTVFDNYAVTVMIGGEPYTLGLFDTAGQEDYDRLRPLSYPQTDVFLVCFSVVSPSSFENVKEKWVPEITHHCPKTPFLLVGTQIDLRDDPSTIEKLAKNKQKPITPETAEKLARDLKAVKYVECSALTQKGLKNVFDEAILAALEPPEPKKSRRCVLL

Tests used:
[1] = target: T1, GST-ACK GBD Δ17 (UniProt Q07912); assay: condition: Kd > 1 μM (the limit of accurate direct SPA calculations); scintillation proximity assay (direct binding); 20 nM GST-ACK variant immobilised on protein A SPA fluoromicrospheres via an anti-GST antibody; varying concentrations of [3H]GTP-Cdc42; background without effector subtracted; apparent Kd from a direct binding isotherm; both purified
T1 sequence: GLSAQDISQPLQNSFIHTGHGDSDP

[2] = target: T2, GST-ACK GBD F462A (UniProt Q07912); assay: as above
T2 sequence: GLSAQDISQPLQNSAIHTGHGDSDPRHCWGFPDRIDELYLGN

[3] = target: T3, GST-ACK GBD H467A (UniProt Q07912); assay: as above
T3 sequence: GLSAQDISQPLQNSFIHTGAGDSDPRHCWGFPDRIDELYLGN

[4] = target: T4, GST-ACK GBD P457A (UniProt Q07912); assay: as above
T4 sequence: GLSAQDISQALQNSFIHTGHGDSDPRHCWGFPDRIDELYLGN

[5] = target: T5, GST-ACK GBD I454A (UniProt Q07912); assay: as above
T5 sequence: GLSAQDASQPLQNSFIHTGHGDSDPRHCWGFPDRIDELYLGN

[6] = target: T6, GST-ACK GBD H464A (UniProt Q07912); assay: as above
T6 sequence: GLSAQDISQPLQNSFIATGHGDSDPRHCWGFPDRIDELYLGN

[7] = target: T7, GST-ACK GBD S461A (UniProt Q07912); assay: as above
T7 sequence: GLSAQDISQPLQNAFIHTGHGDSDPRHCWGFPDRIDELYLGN

[8] = target: T8, GST-ACK GBD H464A/H467A (UniProt Q07912); assay: as above
T8 sequence: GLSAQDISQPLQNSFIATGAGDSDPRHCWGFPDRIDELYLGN

[9] = target: T9, GST-ACK GBD wild type, ACK(448-489) (UniProt Q07912); assay: scintillation proximity assay (competition); 30 nM GST-WT ACK GBD immobilised on protein A SPA fluoromicrospheres via an anti-GST antibody, 30 nM [3H]GTP-Cdc42; increasing concentrations of GST-cleaved ACK variant; pure competition model, apparent Kd (Ki); both purified
T9 sequence: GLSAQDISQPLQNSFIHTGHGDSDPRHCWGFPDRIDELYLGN

[10] = target: Cdc42 Δ7 Q61L (UniProt P60953); assay: as above

| Molecule | binding [1] | binding [2] | binding [3] | binding [4] | binding [5] | binding [6] | binding [7] | binding [8] | binding [9] | binding [10] |
| --- | --- | --- | --- | --- | --- | --- | --- | --- | --- | --- |
| Cdc42 Δ7 Q61L (from UniProt P60953) | no binding | no binding | no binding | no binding | no binding | no binding | no binding | no binding | binds | – |
| GLSAQDISQPLQNSFIATGAGDSDPRHCWGFPDRIDELYLGN (domain or fragment, UniProt Q07912 448-489) [ACK GBD H464A/H467A, cleaved from GST] | – | – | – | – | – | – | – | – | – | no binding |
